{
  "source": "patent US20180271923A1",
  "about": "“COMPOSITION FOR PREVENTING OR TREATING MENOPAUSAL DISORDERS, CONTAINING TETRAGONIA TETRAGONOIDES (PALL.) KUNTZE EXTRACT” (Korea Institute of Oriental Medicine, priority 2015, published 2018)",
  "system": "ovariectomized rats",
  "assay": "Evaluation on menopause inducement in ovariectomized rats (weight of uterus, serum 17β-estradiol by RIA kit)",
  "format": "in vivo",
  "settings": "n = 12, means ± SD",
  "experimental": "Rats were ovariectomized to induce menopause, and weight of uterus and serum levels of 17β-estradiol that is a kind of female hormones were measured to determine whether menopause was induced in the rats. Specifically, the rats were sacrificed, and then their uteri were removed and weighed. A serum concentration of 17β-estradiol was measured with an RIA kit (Linco Research Inc.).",
  "note": "Marks after values point to notes of the source that are not given here.",
  "data": [
    {"smiles": "C[C@]12CC[C@@H]3c4ccc(O)cc4CC[C@H]3[C@@H]1CC[C@@H]2O", "note": "[Positive-control, 17β-estradiol]", "values": [
      {"measurement": "Serum levels of 17β-estradiol", "value": "7.5 ± 1.2^a pg/ml"}
    ]}
  ]
}
